From publication PMC6962373, “Combinatorial allosteric modulation of agonist response in a self-interacting G-protein coupled receptor” (Communications Biology, 2020) come the findings set out here.

This data set deals with HEK293 cells expressing mS1PR1-eGFP. The data set is described as follows: Confocal microscopy count of cytosolic eGFP+ clusters (receptor internalisation), mS1PR1-eGFP. In kind it is cell-based, human. Particulars: 0.1 µM, 20 min. As for the experimental part:
Cells expressing S1PR1-eGFP or mS1PR1-eGFP were plated onto poly-L-lysine-coated 8 well µ-slides (Ibidi) at 3 × 10^4 cell/well. […] Images were deconvoluted using Huygens Professional Software (Scientific Volume Imaging). Mid-plane z-sections were used for counting cytosolic GFP^+ vesicles in cells stimulated for 20 min. Confocal imaging was performed at the Advanced Light and Electron Microscopy Bioimaging Centre of IRCCS San Raffaele Scientific Institute. We used a custom Matlab script (Supplementary Data 1) performing the following image analysis: (i) the membranes were segmented from the image, identifying regions of both absolute and local high intensity (Supplementary Fig. 9A–G) in order to include all the membranes independently of their intensity; (ii) morphological erosion was used to clear small objects and to smooth the edges of the identified membranes (Supplementary Fig. 9H, I); (iii) the region of interest was defined as the region completely enclosed by a membrane (Supplementary Fig. 9J, K); (iv) GFP^+ cytosolic vesicles were identified as local intensity maxima (Supplementary Fig. 9L–O) within the region of interest and counted. Experiments were replicated independently three times. The number of vesicles from 40 to 150 cells were counted as detailed in Fig. 4 legend and the statistical analysis performed with the GraphPad Prism software.

As to `CCCCCCCCc1ccc(CC[C@](N)(CO)COP(=O)(O)O)cc1` [FTY720-P, FTY720 (S)-phosphate], the “Cohen's d-value, untreated vs. ligand (clusters/cell)” value was 0.35.

As to `CCCCCCCCCCCCC/C=C/[C@@H](O)[C@@H](N)COP(=O)(O)O` [S1P, Sphingosine 1-phosphate], the “Cohen's d-value, untreated vs. ligand (clusters/cell)” value came out at 0.13.
